For one substance, binding results are on record in article PMC11806007.

By UniProt entry, the sequences of proteins in these tests, tags left out.
UniProt Q00987: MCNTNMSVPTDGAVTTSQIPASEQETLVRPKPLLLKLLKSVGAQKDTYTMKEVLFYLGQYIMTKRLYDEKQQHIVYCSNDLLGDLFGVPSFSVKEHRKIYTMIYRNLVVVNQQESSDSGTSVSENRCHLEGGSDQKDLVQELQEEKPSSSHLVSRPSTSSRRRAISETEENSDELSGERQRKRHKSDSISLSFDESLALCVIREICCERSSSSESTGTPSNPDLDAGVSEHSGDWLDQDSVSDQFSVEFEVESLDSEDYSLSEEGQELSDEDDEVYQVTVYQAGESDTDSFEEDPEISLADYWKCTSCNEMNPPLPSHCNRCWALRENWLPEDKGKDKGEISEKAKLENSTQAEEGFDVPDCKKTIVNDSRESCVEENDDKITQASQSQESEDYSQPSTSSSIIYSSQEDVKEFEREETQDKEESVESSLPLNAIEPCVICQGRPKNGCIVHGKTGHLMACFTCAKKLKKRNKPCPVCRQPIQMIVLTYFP

Results are given in words; binding and its absence hold for the method and conditions named. Binding seen in cells or lysates may run through a third protein. Some entries that bind do so weakly or less than the wild type. Sequences can lack the tags named with a protein.

In assay [1] the target is T1, spastin-DDK-MYC (human) (UniProt Q9UBP0).
T1 sequence: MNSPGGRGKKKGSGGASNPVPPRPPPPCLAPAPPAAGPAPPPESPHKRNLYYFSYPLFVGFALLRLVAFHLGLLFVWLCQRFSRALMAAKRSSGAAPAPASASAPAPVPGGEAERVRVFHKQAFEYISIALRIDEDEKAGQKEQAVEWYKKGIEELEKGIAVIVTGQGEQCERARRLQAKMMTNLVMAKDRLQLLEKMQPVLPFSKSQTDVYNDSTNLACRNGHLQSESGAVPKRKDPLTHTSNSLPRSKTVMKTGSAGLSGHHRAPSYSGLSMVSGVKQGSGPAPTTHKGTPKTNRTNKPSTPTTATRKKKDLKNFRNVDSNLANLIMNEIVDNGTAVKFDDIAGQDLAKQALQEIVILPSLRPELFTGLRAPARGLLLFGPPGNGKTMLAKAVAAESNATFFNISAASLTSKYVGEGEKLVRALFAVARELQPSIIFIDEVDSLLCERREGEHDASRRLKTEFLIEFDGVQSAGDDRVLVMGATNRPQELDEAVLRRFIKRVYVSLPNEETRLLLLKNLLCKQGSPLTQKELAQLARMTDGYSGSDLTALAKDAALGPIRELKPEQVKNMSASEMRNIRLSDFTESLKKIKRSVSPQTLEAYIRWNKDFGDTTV
Kind of assay: proximity ligation; in situ PLA (Duolink) on fixed cells; mouse anti-MDM2 (SMP14) and rabbit anti-FLAG; amplification 120 min.

For assay [2], the target named is T1, spastin-DDK-MYC (human). Briefly: co-IP; total cell extracts of HeLa cells transfected with pCMV6-spastin-DDK-MYC or pCMV6-DDK-MYC, lysed 24 h post transfection, immunoprecipitated with anti-DDK Ab, WB for MDM2.

For “MDM2 (endogenous) (from UniProt Q00987 1-491)”, the binding result with spastin-DDK-MYC (human) [1] and with spastin-DDK-MYC (human) [2] was “binds” in each case.
